PubChem BioAssay AID652272 | Drosophila RNAi Screening Center, 2013
Assay: 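Genome-wide knock-down search for components of Hedgehog signalling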 (primary screen). Cells: Drosophila clone 8 (Cl8) cells. Reagents: long dsRNA against Drosophila genes. Detection: 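Firefly light from a Hedgehog-responsive ptc promoter reporter and Renilla reference light, both read on a plate reader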. Scale: firefly Hh reporter signal: higher = more ptc reporter light; Renilla reference signal: higher = more Renilla control light. Rule for the call: 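Called a hit if the two-replicate mean z-score lies below -2 or above +3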. Calls: active = hit: reporter lowered or raised; inactive = not a hit.
In all, the deposit lists about 21,000 reagents; shown is an unselected part of those with a known target gene and a result. Of all reagents, 503 (2.4%) were called active. 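Raw plate light values, not normalised; calls rest on replicate z-scores that were not deposited; hits include reporter decreases as well as increases.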 The numbers tell different reagents against one gene apart. Names joined by + are all predicted targets of the reagent. Not given: the amount of reagent, the time to read-out.

After knock-down of LpR1 (Lipophorin receptor 1) #1 the results were firefly Hh reporter signal, replicate 1 = 1.01e5; firefly Hh reporter signal, replicate 2 = 95248; Renilla reference signal, replicate 1 = 2192; Renilla reference signal, replicate 2 = 2728; inactive.
With knock-down of LpR1 (Lipophorin receptor 1) #2, the screen gave firefly Hh reporter signal, replicate 1 = 5.59e5; firefly Hh reporter signal, replicate 2 = 1.14e5; Renilla reference signal, replicate 1 = 32448; Renilla reference signal, replicate 2 = 4427; inactive.
For LpR1 (Lipophorin receptor 1) #3, the values are firefly Hh reporter signal, replicate 1 = 5.35e5; firefly Hh reporter signal, replicate 2 = 1.10e5; Renilla reference signal, replicate 1 = 28744; Renilla reference signal, replicate 2 = 3304; inactive.
Silencing of EMC7 (ER membrane protein complex subunit 7) resulted in: firefly Hh reporter signal, replicate 1 = 63571; firefly Hh reporter signal, replicate 2 = 67833; Renilla reference signal, replicate 1 = 780; Renilla reference signal, replicate 2 = 4866; inactive.
Against Efr (ER GDP-fucose transporter), the values are firefly Hh reporter signal, replicate 1 = 61872; firefly Hh reporter signal, replicate 2 = 2.07e5; Renilla reference signal, replicate 1 = 2173; Renilla reference signal, replicate 2 = 7946; inactive.
For CG31099, the entry reads firefly Hh reporter signal, replicate 1 = 5.22e5; firefly Hh reporter signal, replicate 2 = 1.08e5; Renilla reference signal, replicate 1 = 25649; Renilla reference signal, replicate 2 = 3341; inactive.
Gbs-76A (Glycogen binding subunit 76A) gave firefly Hh reporter signal, replicate 1 = 1.34e5; firefly Hh reporter signal, replicate 2 = 73365; Renilla reference signal, replicate 1 = 5539; Renilla reference signal, replicate 2 = 2912; inactive.
sas (stranded at second) showed firefly Hh reporter signal, replicate 1 = 69156; firefly Hh reporter signal, replicate 2 = 74380; Renilla reference signal, replicate 1 = 2779; Renilla reference signal, replicate 2 = 2448; inactive.
Silencing of CG8839 gave: firefly Hh reporter signal, replicate 1 = 89802; firefly Hh reporter signal, replicate 2 = 45383; Renilla reference signal, replicate 1 = 4296; Renilla reference signal, replicate 2 = 2178; inactive.
Cpes (Ceramide phosphoethanolamine synthase) scored firefly Hh reporter signal, replicate 1 = 34998; firefly Hh reporter signal, replicate 2 = 26796; Renilla reference signal, replicate 1 = 2306; Renilla reference signal, replicate 2 = 1984; active.
Depletion of crp (cropped) gave: firefly Hh reporter signal, replicate 1 = 53987; firefly Hh reporter signal, replicate 2 = 29616; Renilla reference signal, replicate 1 = 2149; Renilla reference signal, replicate 2 = 3571; active.
Mi-2 + Su(Tpl) gave firefly Hh reporter signal, replicate 1 = 3.40e5; Renilla reference signal, replicate 1 = 7290; inactive.
Depletion of CG30377 #1 resulted in: firefly Hh reporter signal, replicate 1 = 36300; firefly Hh reporter signal, replicate 2 = 34613; Renilla reference signal, replicate 1 = 1792; Renilla reference signal, replicate 2 = 1762; inactive.
For CG30377 #2 the deposit lists firefly Hh reporter signal, replicate 1 = 60160; firefly Hh reporter signal, replicate 2 = 26459; Renilla reference signal, replicate 1 = 1805; Renilla reference signal, replicate 2 = 2672; inactive.
mop (myopic) scored firefly Hh reporter signal, replicate 1 = 59200; firefly Hh reporter signal, replicate 2 = 49082; Renilla reference signal, replicate 1 = 2624; Renilla reference signal, replicate 2 = 2139; inactive.
ninaG scored firefly Hh reporter signal, replicate 1 = 81224; firefly Hh reporter signal, replicate 2 = 91943; Renilla reference signal, replicate 1 = 2800; Renilla reference signal, replicate 2 = 2560; inactive.
After knock-down of mRpL49 (mitochondrial ribosomal protein L49), the screen gave firefly Hh reporter signal, replicate 1 = 73530; firefly Hh reporter signal, replicate 2 = 1.77e5; Renilla reference signal, replicate 1 = 2225; Renilla reference signal, replicate 2 = 6688; inactive.
For Con (Connectin), the values are firefly Hh reporter signal, replicate 1 = 67632; firefly Hh reporter signal, replicate 2 = 72585; Renilla reference signal, replicate 1 = 2870; Renilla reference signal, replicate 2 = 2612; inactive.
With knock-down of nerfin-2 (nervous fingers 2) the results were firefly Hh reporter signal, replicate 1 = 72304; firefly Hh reporter signal, replicate 2 = 1.04e5; Renilla reference signal, replicate 1 = 2336; Renilla reference signal, replicate 2 = 2957; inactive.
Depletion of CG43085 came out at: firefly Hh reporter signal, replicate 1 = 2.23e5; Renilla reference signal, replicate 1 = 5589; inactive.
Scp1 (Sarcoplasmic calcium-binding protein 1) #1 showed firefly Hh reporter signal, replicate 1 = 7.80e5; firefly Hh reporter signal, replicate 2 = 2.43e5; Renilla reference signal, replicate 1 = 40723; Renilla reference signal, replicate 2 = 5962; inactive.
With knock-down of Scp1 (Sarcoplasmic calcium-binding protein 1) #2, the record shows firefly Hh reporter signal, replicate 1 = 6.97e5; firefly Hh reporter signal, replicate 2 = 2.65e5; Renilla reference signal, replicate 1 = 37528; Renilla reference signal, replicate 2 = 6932; inactive.
With knock-down of Scp1 (Sarcoplasmic calcium-binding protein 1) #3, the record shows firefly Hh reporter signal, replicate 1 = 1.34e5; firefly Hh reporter signal, replicate 2 = 2.62e5; Renilla reference signal, replicate 1 = 5147; Renilla reference signal, replicate 2 = 11680; inactive.

In a second layout: entries from further up.
Gene | reagent no. | firefly Hh reporter signal, replicate 1 | firefly Hh reporter signal, replicate 2 | Renilla reference signal, replicate 1 | Renilla reference signal, replicate 2 | activity call
LpR1 (Lipophorin receptor 1) | 3 | 5.35e5 | 1.10e5 | 28744 | 3304 | inactive
EMC7 (ER membrane protein complex subunit 7) | 1 | 63571 | 67833 | 780 | 4866 | inactive
Efr (ER GDP-fucose transporter) | 1 | 61872 | 2.07e5 | 2173 | 7946 | inactive
